## Library screening results

Data taken from ChEMBL document CHEMBL3988442, “University of Dundee, Small-Polar-MMV Screening Library” (2021).

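Whole-cell assay for inhibitors of Mycobacterium tuberculosis growth, labelled Cornell in the record; the read-out is not stated. The concentration is filed as 10 mM, unlikely as a test dose, so the dose is not known. Higher means stronger inhibition (inferred from two other growth screens of the library). Size under these conditions: about 53,000 compounds, about 900 of them at 50% or above in at least one test.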

Values are the deposited “Percent Effect”, in %. How 0% and 100% were set is not recorded. Most values in the screen are low, and negative values occur. This is an unselected part of the compounds tested.

| # | SMILES | Percent Effect |
|---|---|---|
| 1 | `OC1(CNCc2cnc(N3CCOCC3)nc2)CCCCC1` | 15.14 |
| 2 | `COCCN1CC(c2nc(CSC)no2)CCC1=O` (stereo not given) | -15.63 |
| 3 | `Cn1ccnc1C(=O)N1CCC2(CCN2c2ncccn2)C1.O=C(O)C(F)(F)F` (stereo not given) | 0.813 |
| 4 | `CC(C)C(=O)N1CCCc2c(cnn2-c2ccccc2)C1` | 1.789 |
| 5 | `CCc1ccsc1C(=O)N1CCN(C(=O)CC(F)(F)F)CC1` | 13.73 |
| 6 | `Cc1nn(CC(C)C)c(N(C)C)c1CNCc1cccnc1N(C)C` | 34.46 |
| 7 | `O=C(O)C(F)(F)F.O=C(O)C(F)(F)F.[H][C@]12CO[C@H](CNC(=O)c3cccnc3)[C@@]1([H])CCN(Cc1ccco1)C2` | 2.855 |
| 8 | `Cn1nc2c(cc1=O)CN(CCc1nc3ccccc3c(=O)[nH]1)CC2` | 8.475 |
| 9 | `Cc1nc(-c2cccc(Cl)c2)n(CC(=O)NCC2CCCO2)c(=O)c1C` (stereo not given) | 23.59 |
| 10 | `COC(=O)N1CCCCC1C(=O)N1CCC(c2ccncc2)CC1` (stereo not given) | -5.19 |
| 11 | `CCc1cnc(C)nc1N1CCN(Cc2ccc(-c3cc[nH]n3)o2)CC1` | -10.4 |
| 12 | `O=C(CCC1CCCN(C(=O)CCN2CCCCO2)C1)N1CCCC1` (stereo not given) | 2.615 |
| 13 | `CCn1c(CC2CCN(C(=O)C3COCCO3)CC2)nn(C)c1=O` (stereo not given) | -42.06 |
| 14 | `Cc1ccc(NC2CCN(C(=O)CCCn3ccnc3C)CC2)nn1` | -59.56 |
| 15 | `CC(Cn1cccn1)NC(=O)NCc1cccnc1OC(C)C` (stereo not given) | -5.948 |
| 16 | `Cc1cncnc1C1CCN(CC2CC2)CC1` | -27.85 |
| 17 | `O=C(CN(Cc1ccccc1)CC1CCOCC1)NC(=O)NC1CC1` | 16.06 |
| 18 | `O=C(CCc1ccccc1)NCC1CCN(Cc2ccccc2)CC1` | 15.43 |
| 19 | `O=C(O)CCC(=O)Nc1nn(Cc2ccccc2Cl)cc1Cl` | 2.774 |
| 20 | `c1cnc(Nc2ccc(C3CCCCN3)cn2)cn1` (stereo not given) | 5.4 |
| 21 | `[H][C@@]12COC(=O)N1CCN(C(=O)NC(C)C)C2` | -11.45 |
| 22 | `Cc1ccc(CCNc2ncnc3sc4c(c23)CCNC4)o1` | 23.9 |
| 23 | `Cc1nc(-c2cncnc2C2CCCNC2)no1.Cl.Cl` (stereo not given) | -14.62 |
| 24 | `CCc1cnccc1C(=O)NC1CCN(C(=O)C2CCCCC2)CC1` | 2.688 |
| 25 | `Cc1csc(N2CCN(Cc3ccccn3)CC2)n1` | -1.942 |
| 26 | `COc1ccc(CSc2nnc(N)n2C2CC2)cc1F` | -33.54 |
| 27 | `O=C(NCCn1cccc1)C(c1ccccc1)N1CCCC1` (stereo not given) | 5.673 |
| 28 | `CN(Cc1cccnc1)C1CC2(CCN(c3ncccn3)CC2)C1.O=C(O)C(F)(F)F.O=C(O)C(F)(F)F` | 12.4 |
| 29 | `Cc1ccc2c(c1)C1(CCN(C(N)=O)CC1)CN2C(=O)N(C)C` | -21.04 |
| 30 | `O=S(=O)(Cc1ccccc1F)NCCCN1CCCCC1` | 20.21 |
| 31 | `[H][C@@]12C[C@H](C(=O)NC)[C@@]([H])(CN(C(=O)Nc3ccccc3)C1)O2` | 5.652 |
| 32 | `NC(=O)C1CCCN1c1cc(N2CCc3ccccc3C2)ncn1` (stereo not given) | 8.554 |
| 33 | `C[C@@H]1CN(C(=O)CCCn2nnc(-c3ccc(F)cc3)n2)C[C@]1(C)O` | -26.39 |
| 34 | `O=C(Cn1cccn1)NCC1CCN(Cc2cc3ccccc3[nH]2)C1` (stereo not given) | 14.8 |
| 35 | `CN(C)c1ccnc(C2CCCN2)n1.Cl` (stereo not given) | 21.33 |
| 36 | `CNS(=O)(=O)c1ccc(CNC(=O)NCc2cc[nH]n2)cc1` | 2.599 |
| 37 | `CO[C@@H]1CCN(S(=O)(=O)c2cn(C)cn2)[C@H]1Cc1ccccc1` | 4.046 |
| 38 | `Cc1noc(C)c1CN(C)Cn1c(=O)n(C)c2ccccc21` | -18.43 |
| 39 | `CCN(CC)CC1CN(Cc2cccc(C#N)c2)Cc2nccn2C1.O=C(O)C(F)(F)F.O=C(O)C(F)(F)F` (stereo not given) | 14.7 |
| 40 | `CC(=O)c1cc(CN2C[C@@H](CN3CCC(O)CC3)[C@@H](CO)C2)n(C)c1` | -0.8129 |
| 41 | `CC(=O)N1CCCN(CC(C)(O)c2cccc(C(F)(F)F)c2)CC1` (stereo not given) | 18.28 |
| 42 | `Cc1ccc(CN2CCc3ncnc(OC(C)C)c3CC2)s1.O=C(O)C(F)(F)F` | 29.25 |
| 43 | `Cc1nc(C)c(C(C)NCc2c(C)nn(CC(C)C)c2N(C)C)s1` (stereo not given) | 102.6 |
| 44 | `Cc1nc(CC(=O)N2CCN(Cc3ccc(C#N)cc3)CC2)cs1` | -24.04 |
| 45 | `O=C(Cc1c[nH]c(=O)[nH]c1=O)N1CCCCC1CCc1cccc(O)c1` (stereo not given) | -2.694 |
| 46 | `COc1cc2cc(C)c(SCCN3CCCC3)nc2cc1OC.Cl` | 33.41 |
| 47 | `CN(C)C(=O)c1ccc2c(c1)N(C)C(CC(=O)NC(C)(C)CO)CO2` (stereo not given) | -8.952 |
| 48 | `O=C(NCCCc1nc(=O)[nH][nH]1)Nc1ccc(Cl)cc1` | -6.599 |
| 49 | `OCc1cccc(CNCc2cccc3c2OCCO3)c1` | -8.708 |
| 50 | `O=C(Nc1cccc(-c2cscn2)c1)N1CCC2(CC1)CC(O)CO2` (stereo not given) | 7.113 |
| 51 | `CCc1nc(CN2CCCN(C(=O)c3cn[nH]c3CC)CC2)cs1` | 5.776 |
| 52 | `c1ccc(CN(Cc2ncc[nH]2)Cc2nccs2)cc1` | 19.76 |
| 53 | `CCO[C@@H]1CCN(C(=O)c2ccnnc2)[C@@H]1Cc1cnn(C)c1` | 5.197 |
| 54 | `[H][C@@]12C[C@H](c3nc(C)no3)CN(S(=O)(=O)CCC)[C@]1([H])CCO2` | -50.13 |
| 55 | `O=C(NCCCc1ccccn1)c1cn(CCN2CCNCC2)nn1` | -11.96 |
| 56 | `Cc1cc(=O)[nH]c(-n2nc(C3CC3)cc2N)n1` | 39.12 |
| 57 | `O=C(CC(F)(F)F)N1CCCC(c2nccn2Cc2ccncc2)C1` (stereo not given) | -0.01619 |
| 58 | `O=C(O)C(F)(F)F.[H][C@@]12CCN(C(=O)c3ccc[nH]3)[C@@]1([H])CC(=O)N2CCN1CCCC1` | -12.58 |
| 59 | `CCC1CCCCCN1C(=O)c1nnc2ccccc2c1N` (stereo not given) | -0.9356 |
| 60 | `CCN(CC)Cc1cn2c(n1)CN(Cc1c(C)noc1C)CC2.O=C(O)C(F)(F)F.O=C(O)C(F)(F)F` | 14.33 |
| 61 | `Clc1cc(NCc2ncc[nH]2)nc2[nH]ccc12` | 9.273 |
| 62 | `O=C(Nc1ccccc1C(=O)NCCCN1CCOCC1)c1ccco1` | -0.9458 |
| 63 | `CCN(CC1CCOCC1)C(=O)Cn1cccc(C(F)(F)F)c1=O` | 31.58 |
| 64 | `COc1ccc(-c2nnc(CN3CCNC(=O)C3)o2)cc1` | 7.479 |
| 65 | `Cc1cnn(CCNCc2ccccc2OCc2ccncc2)c1` | -6.973 |
| 66 | `CC(=O)Nc1ccc2nc(CN(C)Cc3snnc3C)ccc2c1` | -9.048 |
| 67 | `CC(C)Oc1cccc(CNC(=O)NC2(CO)CCCC2)c1` | -18.34 |
| 68 | `Cc1n[nH]c(C2CN(C(=O)CCCn3cccn3)CCO2)n1` (stereo not given) | -15.84 |
| 69 | `CC(C)C(=O)N1CCC(n2nc(-c3ccco3)ccc2=O)CC1` | -13.94 |
| 70 | `CC(C)c1sc(Cl)nc1C(=O)N1CCN(c2ccccc2)CC1` | 13.05 |
| 71 | `CNC(=O)c1cc(NC(=O)Nc2cnn(CC(C)C)c2)ccc1F` | 69.74 |
| 72 | `[H][C@]12CCCCN1CCC[C@H]2CNC(=O)Cn1ccc2cc(Br)ccc21` | -8.265 |
| 73 | `COCC(=O)NCc1cc(=O)n2c(n1)CN(Cc1ccsc1)CCC2` | -1.59 |
| 74 | `Cc1[nH]c(=O)[nH]c(=O)c1CC(=O)N1CCC(Oc2ccc(F)cc2)CC1` | 21 |
| 75 | `CCOCC(=O)N(C)c1ccc(F)c(Cl)c1` | 6.101 |
| 76 | `CCN(CC)C(=O)N1CCN(C(=O)C2CCCc3[nH]ncc32)CC1` (stereo not given) | -32.39 |
| 77 | `CC(C)c1n[nH]c(C2CN(Cc3ccno3)CCO2)n1` (stereo not given) | -6.915 |
| 78 | `Cc1cnn(C2CCCN(C(=O)c3ccnc(-n4cncn4)c3)C2)c1` (stereo not given) | -11.26 |
| 79 | `CCN(c1ccc(C(=O)N2CCCCC2)cc1)S(=O)(=O)CC` | 32.79 |
| 80 | `Cc1ccc(CN2CCOCC3(C2)CN(c2ccc(C)s2)C(=O)CO3)o1.O=C(O)C(F)(F)F` (stereo not given) | 20.53 |
| 81 | `Cn1cc(C2=NOC(C(=O)NC3(c4ccccc4)CCCC3)C2)cn1` (stereo not given) | -10.17 |

The last 8 entries again:

- Cc1[nH]c(=O)[nH]c(=O)c1CC(=O)N1CCC(Oc2ccc(F)cc2)CC1 : 21%
- CCOCC(=O)N(C)c1ccc(F)c(Cl)c1 : 6.101%
- CCN(CC)C(=O)N1CCN(C(=O)C2CCCc3[nH]ncc32)CC1 (stereo not given) : -32.39%
- CC(C)c1n[nH]c(C2CN(Cc3ccno3)CCO2)n1 (stereo not given) : -6.915%
- Cc1cnn(C2CCCN(C(=O)c3ccnc(-n4cncn4)c3)C2)c1 (stereo not given) : -11.26%
- CCN(c1ccc(C(=O)N2CCCCC2)cc1)S(=O)(=O)CC : 32.79%
- Cc1ccc(CN2CCOCC3(C2)CN(c2ccc(C)s2)C(=O)CO3)o1.O=C(O)C(F)(F)F (stereo not given) : 20.53%
- Cn1cc(C2=NOC(C(=O)NC3(c4ccccc4)CCCC3)C2)cn1 (stereo not given) : -10.17%